The list shows a part of the results.

By UniProt entry, the sequences of proteins in these tests, tags left out.
UniProt Q0JBA9, entry or part of it: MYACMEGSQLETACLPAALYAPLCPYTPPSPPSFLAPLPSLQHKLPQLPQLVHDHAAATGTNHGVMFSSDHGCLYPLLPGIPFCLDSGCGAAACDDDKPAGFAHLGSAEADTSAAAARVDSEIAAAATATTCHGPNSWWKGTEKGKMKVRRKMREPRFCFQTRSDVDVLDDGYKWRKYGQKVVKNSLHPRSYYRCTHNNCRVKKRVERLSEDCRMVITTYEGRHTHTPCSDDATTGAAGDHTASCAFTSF

This passage reports binding signal results from paper PMC7819943, “Rice protein-binding microarrays: a tool to detect cis-acting elements near promoter regions in rice”.

The target in this assay is OsWRKY34 (Oryza sativa, UniProt Q0JBA9 1-250). Kind of assay: protein-binding microarray (RPBM); PBS, 2% BSA, 51.3 ng/ul salmon testes DNA, 50 uM zinc acetate, 200 nM TF, 25 C, 1 h; high values mean tight binding. To be noted: protein: recombinant; tags: N-terminal polyhistidine and DsRed monomer fusion (pET32a); label: CyDye5-dUTP incorporated in the synthesized complementary strand; 3' TTTTT single-stranded linker to array surface; dsDNA, one strand shown. The gist of the method:
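Binding signal is defined as the fluorescence intensity of each feature in arbitrary units, read on an Axon 4000B scanner. Transcription factors with N-terminal polyhistidine and DsRed fusions came from E. coli BL21-CodonPlus and were purified on Ni–NTA. They were incubated at 200 nM for 1 h at 25 °C on a custom Agilent array that had been made double-stranded with Cy5-dUTP, with 50 µM zinc acetate present, and the array was washed.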
Regarding “TATCCCATTCTTTTTGTGTGCATTTTTCTTTCAGATCAATCGGAGTCACCTAGTGCAG”, the binding signal is 13100 fluorescence intensity (a.u.). As to “AGTTTTTCAGGCTTCTGAACTTGCTCAGCTAGCCACTCTGCGGAGTCACCTAGTGCAG”, the binding signal was 8520 fluorescence intensity (a.u.). As to “AAGTTATTGATGGTCAAAGTTATAAAAGTTTGACCTCAACCGGAGTCACCTAGTGCAG”, the binding signal was 8840 fluorescence intensity (a.u.). On to “GGAGACAGATTATACCTGGTTTTGTGGCTGAGGGATACAACGGAGTCACCTAGTGCAG”, for which the binding signal was 9420 fluorescence intensity (a.u.).

Regarding “CTACACTTTCACACGAGTCTAGTCAAACACATATTGACCACGGAGTCACCTAGTGCAG”, the binding signal was 10600 fluorescence intensity (a.u.).

On to “AATTGGCTGGATATCCTGTTCTTCATGTAATCATGTCATGCGGAGTCACCTAGTGCAG”, for which the binding signal was 8600 fluorescence intensity (a.u.). The value for “GTAACTTCGGAACAATTGATTGTACTGTAGGGGTGGGATTCGGAGTCACCTAGTGCAG” was 9250 fluorescence intensity (a.u.); that for “ACTGACCACAGCTCCAAAATTTCACTCTAAGCCTTACTACCGGAGTCACCTAGTGCAG” was 10400 fluorescence intensity (a.u.); that for “CTGCTTTTTTATCTAACGTTTCACCATTCTTTTTCAAAAACGGAGTCACCTAGTGCAG” was 11600 fluorescence intensity (a.u.). Regarding “TTTAGTAGCAATCGACGTCTTCCCATCCAACAAATTGCCTCGGAGTCACCTAGTGCAG”, the binding signal is 8680 fluorescence intensity (a.u.). As for “TTTTTCTACGCATCTAGCCCTCTACATGTGTTTATATATTCGGAGTCACCTAGTGCAG”, the binding signal was 8640 fluorescence intensity (a.u.). The value for “CTCTCTCCGTCCTTAAGAAAAATGTCACATTCGTTTTACTCGGAGTCACCTAGTGCAG” was 9240 fluorescence intensity (a.u.); that for “CCCCGCCGCCGCCGCCTCTCCAGCCATCGCCACCGCGCAACGGAGTCACCTAGTGCAG” was 10200 fluorescence intensity (a.u.). For the sequence “GTCCTTCTTGCAACCAACAGTCTGGCAAGGCCGTTACGTCCGGAGTCACCTAGTGCAG”, the binding signal was 9230 fluorescence intensity (a.u.). The value for “CAGACAGTGCTTCTTCCACATACATACGGCAGTCGTTGACCGGAGTCACCTAGTGCAG” was 14100 fluorescence intensity (a.u.); that for “CCTCTTTCCATATTGCTTTTGGACTCTCCTTTCCTTTTCTCGGAGTCACCTAGTGCAG” was 11000 fluorescence intensity (a.u.); that for “GATCCACGCCTCTCCCGCTCAAATCTCGGGGCGGGCCACCCGGAGTCACCTAGTGCAG” was 10100 fluorescence intensity (a.u.). Turning to “CTGGTTTTTTTTCCACATTTAATACTCCATGCATGTATTTCGGAGTCACCTAGTGCAG”, the binding signal is 8550 fluorescence intensity (a.u.). Consider “AAATAAGAGTGACCGTTCTCGCATTCACTCCATCGCACCACGGAGTCACCTAGTGCAG”, for which the binding signal is 9150 fluorescence intensity (a.u.).

Turning to “AACACCGCCGCCGCTTGGCCATCTCCCCTGCCGACGACACCGGAGTCACCTAGTGCAG”, the binding signal is 8950 fluorescence intensity (a.u.). As to “ACGTGCTGCGACCAATCAGCGGCTGCCAACTCAGCCGGCCCGGAGTCACCTAGTGCAG”, the binding signal is 8390 fluorescence intensity (a.u.). As to “TCCTTTAATTCAAAGAGATCCTATACTTTCTTCATTCTAGCGGAGTCACCTAGTGCAG”, the binding signal is 8260 fluorescence intensity (a.u.).

“AAGGATATAAGGGTGGTTGAGGGGTAGAATAGGAAGAAATCGGAGTCACCTAGTGCAG”: the binding signal is 9360 fluorescence intensity (a.u.). For “ATTTTCTGTTTTGGTATTATTTTACGTTTGCCTGCATCTTCGGAGTCACCTAGTGCAG”, the binding signal was 9660 fluorescence intensity (a.u.). For the sequence “CGTTTCTATTTCCGCGGCCGCCTCCAACCACCCGCGAGGCCGGAGTCACCTAGTGCAG”, the binding signal was 8260 fluorescence intensity (a.u.).

“CGAGTGACGAGGTCTTGGGTTGGGGTAGGGGTGGGATGAGCGGAGTCACCTAGTGCAG”: the binding signal was 19900 fluorescence intensity (a.u.). “GGGTATTAGTGGCGTGATTAATTTGGCGGGAGCAGCGATGCGGAGTCACCTAGTGCAG”: the binding signal was 11700 fluorescence intensity (a.u.). Regarding “GTATCAGCACACAACACAACTGTAGTCCTGGAGCATTCTCCGGAGTCACCTAGTGCAG”, the binding signal was 10200 fluorescence intensity (a.u.). Take “CCGATCGGTGGGGAGGGCTCTCTCTCTCTCTCTCTCTCTCCGGAGTCACCTAGTGCAG”: the binding signal was 9170 fluorescence intensity (a.u.). “ATTTACAGTGTCATCTTTACTTATACACATCAAGAACAAACGGAGTCACCTAGTGCAG”: the binding signal is 8640 fluorescence intensity (a.u.). For the sequence “GCGGGGTTGATTTCTGACTGAGATTTTGTTTTTCTTTTCTCGGAGTCACCTAGTGCAG”, the binding signal was 14000 fluorescence intensity (a.u.).

On to “ATTGATTGTGTACGTTTTGCCCTTAATCCTTGTCAGCAGTCGGAGTCACCTAGTGCAG”, for which the binding signal is 10200 fluorescence intensity (a.u.).

Consider “CTCTTGTTGGATGCCAGGTTTGTTCTCCATTTTTGCAATTCGGAGTCACCTAGTGCAG”, for which the binding signal is 12000 fluorescence intensity (a.u.). For “TGCTTCTCTCTTTTTACCATTGTTTTAACCCTTTTTTTTACGGAGTCACCTAGTGCAG”, the binding signal was 8750 fluorescence intensity (a.u.). Regarding “CAGAGATGTAACATTTTTTTCAGTTGTTTCGCGTGTTCTTCGGAGTCACCTAGTGCAG”, the binding signal is 8480 fluorescence intensity (a.u.).

“GCTTTGTCCTAATGTTTTCCACTGCCTAAGTAACGGATCACGGAGTCACCTAGTGCAG”: the binding signal was 8490 fluorescence intensity (a.u.). The value for “GGTTGAGTATTTGTCATGGTTTGTGGATGCATGGATGGTTCGGAGTCACCTAGTGCAG” was 10000 fluorescence intensity (a.u.). As to “CTTCTTTCTCAATATGTGATTTTCTTTCCTTAATCTCGTTCGGAGTCACCTAGTGCAG”, the binding signal is 8680 fluorescence intensity (a.u.). On to “GCACGGAGTACTTCCCATTCACCCCTTTCGCCCTCTCGCACGGAGTCACCTAGTGCAG”, for which the binding signal is 8390 fluorescence intensity (a.u.). Consider “CCTTCCTCGCCTCGCCTCGGCTCTCACACGACGCCTCTTCCGGAGTCACCTAGTGCAG”, for which the binding signal was 9500 fluorescence intensity (a.u.).

Turning to “GACACCACAGAAGCAGAGGCCATCACGCATCACTTTCTTCCGGAGTCACCTAGTGCAG”, the binding signal was 8290 fluorescence intensity (a.u.). Turning to “CCACCGCTTCCATTCTTCTCGCCTTTTTCTTCCACCGTTGCGGAGTCACCTAGTGCAG”, the binding signal is 9290 fluorescence intensity (a.u.).
